Experiment [1] deals with T. maritima encapsulin shell protein (wild type) (T. maritima). In words: cryo-EM structure.
The target in experiment [2] is T. maritima encapsulin shell protein W90E (T. maritima). In words: co-purification.

From paper doi:10.1101/2021.04.26.441214 (bioRxiv, 2021) come the findings set out here.

No constants are given. Whether binding was seen depends on the method and setting. Binding can be weak; no strength is given. For some assays here: In cells and extracts the contact can be indirect.

B1: T. maritima ferritin-like protein (FLP) cargo (natural protein, UniProt Q9WZP3 1-114, looked up)
chain: MADQYHEPVSELTGKDRDFVRALNSLKEEIEAVAWYHQRVVTTKDETVRKILEHNRDEEMEHAAMLLEWLRRNMPGWDEALRTYLFTDKPITEIEEETSGGSENTGGDLGIRKL
As to B1, the binding entry in experiment [1] and in experiment [2] was “binds” each time.
